According to PubChem BioAssay AID1347075 (National Center for Advancing Translational Sciences (NCATS), 2019):
Screen size: about 400,000 compounds; about 5,500 (1.4%) were called active. This list was built around the results that the source calls inconclusive (neither active nor inactive); the mix of calls is not that of the screen. The call rests on the fitted dose curve; in most records, active means well fitted cell-killing curve with a large enough effect; inconclusive means small, poorly fitted or top-dose-only effect, or effect the other way; inactive means flat fitted curve, though single readings scatter. A potency beside an inconclusive call is a rough fit, not a confirmed value.

test: qHTS assay for MDR1-selective chemotherapeutics: Primary screen using the parental adenocarcinoma cell KB-3-1; settings: KB-3-1 viability, CellTiter-Glo ATP luminescence, 72 h; activity change, negative = cytotoxic: at 46.1 µM (top of the series); further: nearly all actives have a fitted effect of over 60% in size
Summary of the method: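 KB-3-1 parental drug-naive adenocarcinoma cells in DMEM/10% FBS, incubated 72 h at 37 C with pin-transferred compounds across a concentration series. Viability by CellTiter-Glo luminescence; concentration-response curves fitted after normalization.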
On the % scale 0 is the no-effect control and ±100 the full control effect; potency means the concentration at half of the fitted maximal effect.

Row | Structure (SMILES) | Potency | activity change, negative = cytotoxic
1 | O=C(CSc1nnc(-c2ccccc2Cl)o1)N1CCCc2ccccc21 | inconclusive: 23.1 µM [cytotoxic, single point] | –
2 | Cc1ccc2nc(/C(C#N)=C\c3ccc(OC(=O)c4cccs4)cc3)[nH]c2c1 | inconclusive: 29.1 µM [cytotoxic, single point] | –
3 | S=C(c1ccc(Br)cc1)N1CCN(Cc2ccccc2)CC1 | inconclusive: 16.4 µM [cytotoxic, single point] | –
4 | CCOc1cc(/C=N/N=C2/NC(=O)C(CC(=O)O)S2)ccc1OS(=O)(=O)c1ccc(C)cc1 (stereo unspecified) | inconclusive: 29.1 µM [rising, single point] | –
5 | CCOc1ccc(C(=O)c2cn(CC(=O)Nc3ccc(Cl)cc3)c3cc4c(cc3c2=O)OCO4)cc1 | inconclusive: 29.1 µM [cytotoxic, single point] | –
6 | Cc1ccc(C2CC(c3ccco3)n3ncnc3N2)cc1 (stereo unspecified) | – | inactive: -0.986%
7 | Cc1ccc(S(=O)(=O)Nc2ccc3ncccc3c2)cc1 | inconclusive: 9.2 µM [cytotoxic, partial curve] | –
8 | COc1ccc(/C=N/Nc2cc(C)nc(-n3nc(C)cc3C)n2)cc1 | inconclusive: 6.51 µM [cytotoxic, partial curve, poor fit] | –
9 | Cc1cccnc1C(NC(=O)C1CCN(Cc2cn(C)c3ccccc23)CC1)c1ccc(Cl)cc1 (stereo unspecified) | inconclusive: 29.1 µM [cytotoxic, single point] | –
10 | Cc1nn(C)cc1/C=C/C(=O)c1cccs1 | – | inactive: 6.01%
11 | O=C(c1ccccc1)C1CC1c1ccccc1 (stereo unspecified) | inconclusive: 23.1 µM [cytotoxic, single point] | –
12 | CCCCCn1nc(C(=O)N2CCc3ccccc32)c2ccccc2c1=O | inconclusive: 23.1 µM [cytotoxic, single point] | –
13 | CC(C)CNC(=O)C1CCCN(C(=O)NCc2ccccc2)C1 (stereo unspecified) | – | inactive: 4.63%
14 | C#CCOCCOCCOCCNc1nc(N2CCN(C(=O)CCCCCCCCCCNC(=O)[C@@H](CCSC)n3cc(CCO)nn3)CC2)nc(N2CCN(C(=O)CCCCCCCCCCNC(=O)[C@H]([C@@H](C)CC)n3cc(CCCCN=C(N)N)nn3)CC2)n1 | active: 16.4 µM | –
15 | O=C(O)c1ccc(Cl)c(S(=O)(=O)Nc2cccc(C(=O)Nc3cccc(C(F)(F)F)c3)c2)c1 | – | inactive: 6.52%
16 | CCOc1ccc(S(=O)(=O)Nc2cc(S(=O)(=O)N(CC)CC)ccc2N2CCCC2)cc1 | inconclusive: 20.6 µM [cytotoxic, single point] | –
17 | C=CCn1c(SCC(=O)Nc2cc(C)on2)nc2ccccc21 | – | inactive: -1.88%
18 | Cc1ccc(S(=O)(=O)N2C[C@H]3C(=O)C[C@@H](c4ccccc4)N(S(=O)(=O)c4cccc(C)c4)[C@H]3C[C@H]2c2ccccc2)cc1 | – | inactive: -1.16%
19 | CCN(Cc1ccccc1)S(=O)(=O)c1ccc(S(=O)(=O)N(Cc2ccccn2)Cc2ccco2)cc1 | – | inactive: -3.32%
20 | COc1cccc(NS(=O)(=O)c2ccc3c(c2)n(C)c(=O)n3C)c1 | inconclusive: 5.17 µM [cytotoxic, partial curve] | –
21 | Cc1cccc2cc(CN(Cc3nnnn3C3CCCCC3)C3CCCC3)c3nnnn3c12 | inconclusive: 32.6 µM [cytotoxic, single point] | –

Copied from the entries so far, 13 compounds:
Row | Structure (SMILES) | Potency | activity change, negative = cytotoxic
3 | S=C(c1ccc(Br)cc1)N1CCN(Cc2ccccc2)CC1 | inconclusive: 16.4 µM [cytotoxic, single point] | –
4 | CCOc1cc(/C=N/N=C2/NC(=O)C(CC(=O)O)S2)ccc1OS(=O)(=O)c1ccc(C)cc1 (stereo unspecified) | inconclusive: 29.1 µM [rising, single point] | –
5 | CCOc1ccc(C(=O)c2cn(CC(=O)Nc3ccc(Cl)cc3)c3cc4c(cc3c2=O)OCO4)cc1 | inconclusive: 29.1 µM [cytotoxic, single point] | –
6 | Cc1ccc(C2CC(c3ccco3)n3ncnc3N2)cc1 (stereo unspecified) | – | inactive: -0.986%
7 | Cc1ccc(S(=O)(=O)Nc2ccc3ncccc3c2)cc1 | inconclusive: 9.2 µM [cytotoxic, partial curve] | –
8 | COc1ccc(/C=N/Nc2cc(C)nc(-n3nc(C)cc3C)n2)cc1 | inconclusive: 6.51 µM [cytotoxic, partial curve, poor fit] | –
9 | Cc1cccnc1C(NC(=O)C1CCN(Cc2cn(C)c3ccccc23)CC1)c1ccc(Cl)cc1 (stereo unspecified) | inconclusive: 29.1 µM [cytotoxic, single point] | –
10 | Cc1nn(C)cc1/C=C/C(=O)c1cccs1 | – | inactive: 6.01%
11 | O=C(c1ccccc1)C1CC1c1ccccc1 (stereo unspecified) | inconclusive: 23.1 µM [cytotoxic, single point] | –
12 | CCCCCn1nc(C(=O)N2CCc3ccccc32)c2ccccc2c1=O | inconclusive: 23.1 µM [cytotoxic, single point] | –
13 | CC(C)CNC(=O)C1CCCN(C(=O)NCc2ccccc2)C1 (stereo unspecified) | – | inactive: 4.63%
14 | C#CCOCCOCCOCCNc1nc(N2CCN(C(=O)CCCCCCCCCCNC(=O)[C@@H](CCSC)n3cc(CCO)nn3)CC2)nc(N2CCN(C(=O)CCCCCCCCCCNC(=O)[C@H]([C@@H](C)CC)n3cc(CCCCN=C(N)N)nn3)CC2)n1 | active: 16.4 µM | –
15 | O=C(O)c1ccc(Cl)c(S(=O)(=O)Nc2cccc(C(=O)Nc3cccc(C(F)(F)F)c3)c2)c1 | – | inactive: 6.52%

Continuation.

Row | Structure (SMILES) | Potency | activity change, negative = cytotoxic
22 | CC(C)OCCCNC(=O)c1cc2c(=O)n(C)c3ccccc3c2n1C | – | inactive: -2.82%
23 | COc1ccc(Cl)c2sc(NC(=O)c3ccc(S(=O)(=O)N4CCOCC4)cc3)nc12 | – | inactive: 9.15%
24 | CCc1ccc(NC(=O)Cn2c(=O)n(-c3ccc(Cl)c(Cl)c3)c(=O)c3c(C)c(C)sc32)cc1 | – | inactive: 17.1%
25 | COc1cc(OC)c(/C=C/c2c3ccccc3cc[n+]2C)c(OC)c1 | inconclusive: 0.82 µM [cytotoxic, full curve, poor fit] | –
26 | CC1CCC(NC(=O)c2cccc(S(=O)(=O)N3CCN(c4ccc(F)cc4)CC3)c2)CC1 (stereo unspecified) | inconclusive: 3.66 µM [cytotoxic, full curve, poor fit] | –
27 | Cc1ccc(NS(=O)(=O)c2cc([N+](=O)[O-])ccc2NNC(=S)Nc2cc(C)ccc2C)c(C)c1 | active: 20.6 µM | –
28 | O=C1CC(c2ccco2)Cc2nc(Nc3nc(-c4ccccc4)c4ccccc4n3)ncc21 (stereo unspecified) | inconclusive: 18.4 µM [cytotoxic, single point] | –
29 | CCOC(=O)C1(CCOc2ccccc2)CCN(Cc2cccc3c2OCO3)CC1 | inconclusive: 29.1 µM [cytotoxic, single point] | –
30 | CSc1cccc(NC(=O)C2CCN(c3nc4ccccc4[nH]3)CC2)c1 | – | inactive: -2.19%
31 | Cc1ccc(Cn2c(SCc3ccc(C(=O)NC4CCCCC4)cc3)nc3ccncc32)cc1 | inconclusive: 29.1 µM [cytotoxic, single point] | –
32 | CN1c2ccccc2C2(C)CCCC3=Cc4cc([N+](=O)[O-])cc([N+](=O)[O-])c4OC312 (stereo unspecified) | inconclusive: 9.2 µM [cytotoxic, partial curve, poor fit] | –
33 | COc1ccc(N2C(=O)CC(Sc3nc(C)c4c(n3)CCCC4)C2=O)cc1 (stereo unspecified) | inconclusive: 29.1 µM [cytotoxic, single point] | –
34 | COc1cc(Nc2ccc(C)cc2)c([N+](=O)[O-])nc1[N+](=O)[O-] | inconclusive: 8.2 µM [cytotoxic, partial curve] | –
35 | CSc1cccc(NC(=O)c2cnn(-c3ccc(F)cc3)c2-n2cccc2)c1 | – | inactive: -26.8%
36 | C[C@@H]1CC=C[C@H]2[C@H]1C(=O)N(Cc1ccccc1)[C@H]2c1ccc2ccccc2c1Br | inconclusive: 29.1 µM [cytotoxic, single point] | –
37 | CSc1ccc(NC(=O)C2(C)CCN2C(=O)Cc2ccc(C(C)(C)C)cc2)cc1 (stereo unspecified) | inconclusive: 20.6 µM [cytotoxic, single point] | –
38 | O=C(Cn1ncn2c(cc3sccc32)c1=O)NCCc1ccccc1 | inconclusive: 29.1 µM [rising, single point] | –
39 | CCCn1c(NC(=O)c2ccccc2)nc2ccccc21 | inconclusive: 29.1 µM [cytotoxic, single point] | –
40 | CCC12CCCN3CCC4(C(=C(C(=O)OC)C1)Nc1ccccc14)C32 (stereo unspecified) | inconclusive: 29.1 µM [cytotoxic, single point] | –
41 | O=C(N/N=C/c1ccc(Br)o1)c1cncc(Br)c1 | inconclusive: 1.84 µM [rising, full curve] | –
42 | CN1CCN(C(=O)c2ccc3c(=O)n(CCc4ccccc4)c(=S)[nH]c3c2)CC1 | inconclusive: 20.6 µM [cytotoxic, single point] | –

Row | Structure (SMILES) | Potency | activity change, negative = cytotoxic
43 | Cc1ccc(C(=O)C(OC(=O)CN2C(=O)c3ccccc3C2=O)c2ccccc2)cc1C (stereo unspecified) | – | inactive: 10.1%
44 | CCOC(=O)c1ccc(NC2=CC(c3ccc(OCC)cc3)N(c3ccc(C(=O)OCC)cc3)C2=O)cc1 (stereo unspecified) | inconclusive: 20.6 µM [cytotoxic, single point] | –
45 | Cc1ccc(N=Cc2c(C)[nH]n(-c3nc4ccccc4[nH]3)c2=O)cc1 | active: 8.2 µM | –
46 | CC(Sc1nc(N)cc(=O)[nH]1)C(=O)Nc1sc2c(c1C#N)CCCC2 (stereo unspecified) | inconclusive: 20.6 µM [cytotoxic, partial curve, poor fit] | –
47 | COC(=O)[C@@]1(Cc2ccc(F)cc2)[C@H]2c3cc(C(=O)N(C)C)n(Cc4nc5ccccc5[nH]4)c3C[C@H]2CN1C(=O)c1ccccc1 | inconclusive: 29.1 µM [cytotoxic, single point] | –
48 | CSc1ccc(CN(C)C(C)C(=O)NCC2CCCCC2)cc1 (stereo unspecified) | inconclusive: 23.1 µM [rising, single point] | –
49 | O=C(COc1ccccc1C(=O)Nc1cccc(F)c1)Nc1ccc(Br)cc1 | inconclusive: 32.6 µM [cytotoxic, partial curve, poor fit] | –
50 | Cc1oc(-c2ccc(Cl)cc2)nc1CN1CCCC(C(=O)NCCc2ccc(Cl)cc2)C1 (stereo unspecified) | inconclusive: 20.6 µM [cytotoxic, partial curve] | –
51 | CCN1C(=NCCCOC(C)C)N[C@@H](CCc2ccccc2)[C@H](C(=O)NCCCOC(C)C)[C@H]1C | inconclusive: 29.1 µM [cytotoxic, single point] | –
52 | O=C(/C=C/c1ccc2c(c1)OCO2)c1ccc(O)cc1O | inconclusive: 20.6 µM [cytotoxic, single point] | –
53 | CCSc1nn(CC(=O)Nc2cccc(CC)c2)c(N)c1S(=O)(=O)c1ccccc1 | inconclusive: 29.1 µM [cytotoxic, single point] | –
54 | CCN(CC)S(=O)(=O)c1ccc(C)c(NC(=S)N2CCN(C/C=C/c3ccccc3)CC2)c1 | inconclusive: 20.6 µM [cytotoxic, partial curve, poor fit] | –
55 | COc1cc2nc(C3CC3)n(NC(=O)c3ccc(Cl)cc3)c(=O)c2cc1OC | inconclusive: 32.6 µM [cytotoxic, single point] | –
56 | N=c1c2c(n(Cc3ccccc3)c3c1CCC3)CCC2 | inconclusive: 1.16 µM [cytotoxic, full curve, poor fit] | –
57 | C=CC[C@@H](CC(=O)N[C@H](CO)Cc1ccccc1)C(=O)N[C@H](COC(=O)[C@@H](CC=C)CC(=O)OC(C)(C)C)Cc1ccccc1 | inconclusive: 18.4 µM [cytotoxic, partial curve, poor fit] | –
58 | CCCCC1=CC2=CC(=O)C(C)(OC(=O)CC)C(=O)C2=CN1C(CO)CO (stereo unspecified) | – | inactive: 19.7%
59 | COc1ccc(C2Nc3ccccc3C(=O)N2Cc2ccco2)cc1COc1ccc(F)cc1 (stereo unspecified) | inconclusive: 32.6 µM [cytotoxic, single point] | –
60 | Cc1ccc(S(=O)(=O)c2c(O)cc(C)c(NS(=O)(=O)c3ccc(Br)cc3)c2C)cc1 | inconclusive: 16.4 µM [cytotoxic, single point] | –
61 | COc1ccc(NC(=O)c2cc(-c3ccncc3)nc3ccc(Br)cc23)cc1OC | inconclusive: 23.1 µM [cytotoxic, single point] | –
